Source: the supplement of paper PMC10994270
This is one part of the list.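 Rule for the calls: active = probability of classifying as wild-type above 0.505; inactive = 0.505 or below.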 Most values come without repeats; read them as rough.

Test system: SORL1-/- neural progenitor cells (hiPSC WTSIi004-B derived)
Assay: probability of classification as wild-type phenotype (neural network, relative to DMSO-treated WT vs SORL1-/- controls) (fraction); higher = more similar to wild-type morphology (phenotypic rescue)
Settings: 24 h
[1] = 100 nM, SORL1-/- sub-clone: WC7
[2] = 100 nM, SORL1-/- sub-clone: XE10
[3] = 300 nM, SORL1-/- sub-clone: WB8
[4] = 300 nM, SORL1-/- sub-clone: WC7
[5] = 300 nM, SORL1-/- sub-clone: XE10
[6] = 1000 nM, SORL1-/- sub-clone: WB8
[7] = 1000 nM, SORL1-/- sub-clone: WC7
[8] = 1000 nM, SORL1-/- sub-clone: XE10
[9] = 100 nM, SORL1-/- sub-clone: WB8

Measured: probability

COc1cccc2c1C(=O)c1c(O)c3c(c(O)c1C2=O)C[C@@](O)(C(C)=O)C[C@@H]3O[C@H]1C[C@H](N)[C@H](O)[C@H](C)O1.Cl [Daunorubicin hydrochloride]
active: [1] 0.744 | [2] 0.716 | [3] 0.759 | [4] 0.999 | [5] 0.907 | [6] 0.998 | [7] 0.997 | [8] 0.776

CCC1(O)C(=O)OCc2c1cc1n(c2=O)Cc2cc3cc(O)ccc3nc2-1 (stereo not drawn) [Hydroxy Camptothecine]
active: [9] 0.842 | [1] 0.985 | [3] 0.997 | [5] 0.53 | [6] 0.963

C/C=C1\NC(=O)[C@H]2CSSCC/C=C/[C@H](CC(=O)N[C@H](C(C)C)C(=O)N2)OC(=O)[C@H](C(C)C)NC1=O [Romidepsin]
active: [9] 0.684 | [1] 0.681 | [3] 0.508

CC(C)C[C@H](NC(=O)[C@H](CCc1ccccc1)NC(=O)CN1CCOCC1)C(=O)N[C@@H](Cc1ccccc1)C(=O)N[C@@H](CC(C)C)C(=O)[C@@]1(C)CO1 [Carfilzomib]
active: [1] 0.939 | [2] 0.773 | [4] 0.92 | [6] 0.95 | [7] 0.976 | [8] 0.887

CC[C@@]1(O)C(=O)OCc2c1cc1n(c2=O)Cc2cc3c(CN(C)C)c(O)ccc3nc2-1.Cl [Topotecan hydrochloride]
active: [9] 0.751 | [3] 0.727 | [4] 0.753 | [5] 0.898 | [7] 0.986 | [8] 0.675
